Measured values published in paper PMC8616268.
Results are given in words; binding and its absence hold for the method and conditions named. In cells and extracts the contact can be indirect. Some results given as binding are weak or reduced against the parent protein; the word gives no strength.

The chains behind the UniProt entries cited, without tags or fusion partners.
UniProt P19338: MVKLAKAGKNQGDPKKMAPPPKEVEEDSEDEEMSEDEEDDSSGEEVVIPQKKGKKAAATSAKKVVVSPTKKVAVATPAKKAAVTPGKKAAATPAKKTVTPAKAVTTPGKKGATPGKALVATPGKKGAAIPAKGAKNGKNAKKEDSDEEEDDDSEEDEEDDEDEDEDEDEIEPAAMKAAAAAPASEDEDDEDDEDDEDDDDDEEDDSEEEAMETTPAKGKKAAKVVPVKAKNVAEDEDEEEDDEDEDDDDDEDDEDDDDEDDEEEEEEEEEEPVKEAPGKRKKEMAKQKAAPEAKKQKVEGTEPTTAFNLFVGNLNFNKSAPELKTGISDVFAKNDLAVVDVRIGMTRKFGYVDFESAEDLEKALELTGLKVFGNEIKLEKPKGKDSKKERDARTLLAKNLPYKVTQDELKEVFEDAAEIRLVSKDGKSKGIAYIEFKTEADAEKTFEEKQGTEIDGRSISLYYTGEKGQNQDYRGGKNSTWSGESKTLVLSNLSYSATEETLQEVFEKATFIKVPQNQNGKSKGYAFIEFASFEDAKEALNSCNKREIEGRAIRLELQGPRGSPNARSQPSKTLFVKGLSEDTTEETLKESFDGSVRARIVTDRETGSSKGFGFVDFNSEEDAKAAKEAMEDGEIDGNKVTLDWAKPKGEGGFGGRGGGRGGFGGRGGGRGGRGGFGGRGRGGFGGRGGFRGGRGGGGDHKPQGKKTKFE
UniProt Q16637: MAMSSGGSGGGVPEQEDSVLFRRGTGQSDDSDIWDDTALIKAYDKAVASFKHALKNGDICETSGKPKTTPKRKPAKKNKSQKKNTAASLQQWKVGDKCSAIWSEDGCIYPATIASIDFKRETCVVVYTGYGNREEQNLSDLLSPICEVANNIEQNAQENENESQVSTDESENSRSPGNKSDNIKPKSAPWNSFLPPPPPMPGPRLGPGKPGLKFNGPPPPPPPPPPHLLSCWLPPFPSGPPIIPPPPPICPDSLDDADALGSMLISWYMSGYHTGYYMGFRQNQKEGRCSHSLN

Legend:
[1] = target: nucleolin (human (endogenous in hTert-Fibroblasts, SH-SY5Y, HeLa)) (UniProt P19338); test: proximity ligation; in situ PLA (Duolink) in SH-SY5Y neuroblastoma cells; antibodies to SMN and nucleolin
[2] = target: nucleolin (human (endogenous in hTert-Fibroblasts, SH-SY5Y, HeLa)) (UniProt P19338); test: proximity ligation; in situ PLA (Duolink) in HeLa cells; antibodies to SMN and nucleolin
[3] = target: nucleolin (human (endogenous in hTert-Fibroblasts, SH-SY5Y, HeLa)) (UniProt P19338); test: proximity ligation; in situ PLA (Duolink) in fixed, permeabilized hTert-Fibroblasts; rabbit polyclonal anti-SMN and mouse monoclonal anti-nucleolin
[4] = target: nucleolin (human (endogenous in hTert-Fibroblasts, SH-SY5Y, HeLa)) (UniProt P19338); test: co-IP; cellular extracts of hTert-Fibroblasts in IP buffer (50 mM Tris-HCl pH 7.5, 250 mM NaCl, 5 mM EDTA, 0.1% Triton X-100, 5% glycerol, RNase inhibitors); nucleolin monoclonal antibody-conjugated beads, overnight at 4 °C; mouse IgG beads as negative control; Western blot for SMN
[5] = target: nucleolin (human (endogenous in hTert-Fibroblasts, SH-SY5Y, HeLa)) (UniProt P19338); test: proximity ligation; PlaLock assay (in situ PLA combined with a padlock probe to mTOR mRNA) in fixed hTert-Fibroblasts; antibodies to SMN and nucleolin pre-incubated with PLA probes PLUS/MINUS, overnight at 37 °C
[6] = target: nucleolin (human (endogenous in hTert-Fibroblasts, SH-SY5Y, HeLa)) (UniProt P19338); test: co-IP; protein part of the RIP assay: extracts of siC- and siSMN-transfected hTert-Fibroblasts, nucleolin monoclonal antibody-conjugated beads; mouse IgG beads as control; immunoblot for nucleolin and SMN

Measured: binding

Survival Motor Neuron (SMN) protein (from UniProt Q16637 1-294)
binds: all assays above
